# Test results published in paper PMC8765320, “Identification of a Proteasome-Targeting Arylsulfonamide with Potential for the Treatment of Chagas’ Disease” (Antimicrobial Agents and Chemotherapy, 2022).
# Tested on: chymotrypsin-like activity of the T. cruzi proteasome
# Assay: Proteasome chymotrypsin-like activity luminescence assay
# Assay type: biochemical, Trypanosoma cruzi
# Details: luminescent assay
# Protocol: Initially, the impact of compound 1 on the chymotrypsin-like proteolytic activity of the proteasome was assessed using a commercially available indirect enzyme-based luminescent assay. In this assay, activity is monitored in proteasome-enriched T. cruzi epimastigote lysates using Suc-LLVY-aminoluciferin as a substrate ([16]). […] Thus, an alternative route to determine the impact of this arylsulfonamide compound on T. cruzi proteasome function was required.
# The effect of inhibitors on the chymotrypsin-like activity of the T. cruzi proteasome was assessed by using a luminescence-based assay, as previously described ([21]).
compound,measurement,value
COc1ccc(NS(=O)(=O)c2cc(-c3cc(C)n[nH]3)ccc2C)cc1OC [Compound 1],interference with the assay,directly interferes with the assay
